{
  "source": "the supplement of paper PMC8728848",
  "binders": {"B1": {"name": "PX14343G-pdi-535-24-535 (Parabacteroides distasonis) (protein)", "chain": "LDTVPKDQLAPSTTWQTEADAKGFIVGCYKDLLDGNTLLYLDCGSDIGYNNFPWEGFRPWGDGSLSSSNPGQILYDYKSIRKANTFLENVDKVTFSSDAVKANYVAQAKAIRAYKYFLMNWWYGGVPIISSYSSADEAKVERNTEQEVRDYIAKDLDEALAGIAEAPEARGYIAKGAVLAIKMREALYYGDWQKAKDAAKAIIDLKQYELDPDYTNLFKVSGVDSKEIILADQNIETLDGLGTIGQMYNNVDQGWSSIVPTQNLVDMYEMSDGLTKEESKTYDAKHPFANRDPRMAMTILYPGRDWRGDVLNTLDEKLQDGTVNKNFPTYTDNASKSALTWAKYLDPMDQYGDVWSSGACPIVFRYAEVLLTYAEAANELSGPSDEIYGYLNQIRQRVGMGEVDKAKYGTKDKLRELIRRERTVELAGEGLRRADIVRWQEDGKMLAEKVMNGDLLRVTGTINYGESEPTKRAEITGTAVIETRQFSSRNRYLPIPQTSMDKNPNLKQNPGY"}},
  "experiment_in_all_cases": "glycan array binding signal (z-score within array); higher = stronger binding",
  "conditions_in_all_cases": "glycan notation: IUPAC condensed, linker removed",
  "key": {"[1]": {"target": "Fuc(a1-2)Gal(b1-4)GlcNAc(b1-3)Gal(b1-4)GlcNAc(b1-3)Gal(b1-4)GlcNAc", "method_in_brief": "(§1)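 Glycan array binding is given as a within-array Z-score, which can be read as non-binding when negative. The arrays, 3228 of them, came from the Consortium for Functional Glycomics database and were retained only where the protein sequence was available. Z-scores were averaged across arrays of the same protein sequence at different concentrations or buffers and across linkers.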"}, "[2]": {"target": "Fuc(a1-2)Gal(b1-4)GlcNAc(b1-3)GalNAc", "method_in_brief": "as §1"}, "[3]": {"target": "Fuc(a1-2)Gal(b1-4)GlcNAc(b1-3)[Fuc(a1-2)Gal(b1-4)GlcNAc(b1-6)]GalNAc", "method_in_brief": "as §1"}, "[4]": {"target": "Fuc(a1-2)Gal(b1-4)GlcNAc(b1-3)[Fuc(a1-3)[Gal(b1-4)]GlcNAc(b1-6)]Gal(b1-4)Glc", "method_in_brief": "as §1"}, "[5]": {"target": "Fuc(a1-2)Gal(b1-4)GlcNAc(b1-6)GalNAc", "method_in_brief": "as §1"}, "[6]": {"target": "Fuc(a1-2)Gal(b1-4)GlcNAc6S", "method_in_brief": "as §1"}, "[7]": {"target": "Fuc(a1-2)Gal(b1-4)[Fuc(a1-3)]GlcNAc", "method_in_brief": "as §1"}, "[8]": {"target": "Fuc(a1-2)Gal(b1-4)[Fuc(a1-3)]GlcNAc(b1-2)Man(a1-3)[Fuc(a1-2)Gal(b1-4)[Fuc(a1-3)]GlcNAc(b1-2)Man(a1-6)]Man(b1-4)GlcNAc(b1-4)[Fuc(a1-6)]GlcNAc", "method_in_brief": "as §1"}, "[9]": {"target": "Fuc(a1-2)Gal(b1-4)[Fuc(a1-3)]GlcNAc(b1-2)[Fuc(a1-2)Gal(b1-4)[Fuc(a1-3)]GlcNAc(b1-4)]Man(a1-3)[Fuc(a1-2)Gal(b1-4)[Fuc(a1-3)]GlcNAc(b1-2)Man(a1-6)]Man(b1-4)GlcNAc(b1-4)GlcNAc", "method_in_brief": "as §1"}, "[10]": {"target": "Fuc(a1-2)Gal(b1-4)[Fuc(a1-3)]GlcNAc(b1-3)Gal(b1-4)[Fuc(a1-3)]GlcNAc", "method_in_brief": "as §1"}, "[11]": {"target": "Fuc(a1-2)Gal(b1-4)[Fuc(a1-3)]GlcNAc(b1-3)Gal(b1-4)[Fuc(a1-3)]GlcNAc(b1-3)Gal(b1-4)[Fuc(a1-3)]GlcNAc", "method_in_brief": "as §1"}, "[12]": {"target": "Fuc(a1-2)Gal(b1-4)[Fuc(a1-3)]GlcNAc(b1-3)GalNAc", "method_in_brief": "as §1"}, "[13]": {"target": "Fuc(a1-2)Gal(b1-4)[Fuc(a1-3)]GlcNAc(b1-3)[Neu5Ac(a2-6)Gal(b1-4)GlcNAc(b1-6)]Gal(b1-4)Glc", "method_in_brief": "as §1"}, "[14]": {"target": "Fuc(a1-2)Gal3S(b1-4)GlcNAc", "method_in_brief": "as §1"}, "[15]": {"target": "Fuc(a1-2)Gal6S(b1-3)GlcNAc", "method_in_brief": "as §1"}, "[16]": {"target": "Fuc(a1-2)Gal6S(b1-3)GlcNAc6S", "method_in_brief": "as §1"}, "Fuc(a1-2)Gal6S(b1-4)Glc": {"target": "Fuc(a1-2)Gal6S(b1-4)Glc", "method_in_brief": "as §1"}, "[17]": {"target": "Fuc(a1-2)Gal6S(b1-4)Glc6S", "method_in_brief": "as §1"}, "Fuc(a1-2)[Gal(a1-3)]Gal": {"target": "Fuc(a1-2)[Gal(a1-3)]Gal", "method_in_brief": "as §1"}, "[18]": {"target": "Fuc(a1-2)[Gal(a1-3)]Gal(b1-3)GalNAc", "method_in_brief": "as §1"}, "[19]": {"target": "Fuc(a1-2)[Gal(a1-3)]Gal(b1-3)GalNAc(b1-3)Gal(a1-4)Gal(b1-4)Glc", "method_in_brief": "as §1"}, "[20]": {"target": "Fuc(a1-2)[Gal(a1-3)]Gal(b1-3)GlcNAc", "method_in_brief": "as §1"}, "[21]": {"target": "Fuc(a1-2)[Gal(a1-3)]Gal(b1-3)GlcNAc(b1-2)Man(a1-3)[Fuc(a1-2)[Gal(a1-3)]Gal(b1-3)GlcNAc(b1-2)Man(a1-6)]Man(b1-4)GlcNAc(b1-4)GlcNAc", "method_in_brief": "as §1"}, "[22]": {"target": "Fuc(a1-2)[Gal(a1-3)]Gal(b1-3)GlcNAc(b1-2)Man(a1-3)[Fuc(a1-2)[Gal(a1-3)]Gal(b1-3)GlcNAc(b1-2)Man(a1-6)]Man(b1-4)GlcNAc(b1-4)[Fuc(a1-6)]GlcNAc", "method_in_brief": "as §1"}, "[23]": {"target": "Fuc(a1-2)[Gal(a1-3)]Gal(b1-3)GlcNAc(b1-3)GalNAc", "method_in_brief": "as §1"}, "[24]": {"target": "Fuc(a1-2)[Gal(a1-3)]Gal(b1-3)GlcNAc(b1-6)GalNAc", "method_in_brief": "as §1"}, "[25]": {"target": "Fuc(a1-2)[Gal(a1-3)]Gal(b1-4)Glc", "method_in_brief": "as §1"}, "[26]": {"target": "Fuc(a1-2)[Gal(a1-3)]Gal(b1-4)GlcNAc", "method_in_brief": "as §1"}, "[27]": {"target": "Fuc(a1-2)[Gal(a1-3)]Gal(b1-4)GlcNAc(b1-2)Man", "method_in_brief": "as §1"}, "[28]": {"target": "Fuc(a1-2)[Gal(a1-3)]Gal(b1-4)GlcNAc(b1-2)Man(a1-3)[Fuc(a1-2)[Gal(a1-3)]Gal(b1-4)GlcNAc(b1-2)Man(a1-6)]Man(b1-4)GlcNAc(b1-4)GlcNAc", "method_in_brief": "as §1"}},
  "note": "The other results are listed elsewhere or left out.",
  "data": [
    {"binder": "B1", "values": [
      {"measurement": "glycan array binding signal (z-score)", "setting": "[1]", "result": 0.33},
      {"measurement": "glycan array binding signal (z-score)", "setting": "[2]", "result": 0.446},
      {"measurement": "glycan array binding signal (z-score)", "setting": "[3]", "result": -0.109},
      {"measurement": "glycan array binding signal (z-score)", "setting": "[4]", "result": 0.439},
      {"measurement": "glycan array binding signal (z-score)", "setting": "[5]", "result": 1.34},
      {"measurement": "glycan array binding signal (z-score)", "setting": "[6]", "result": -0.509},
      {"measurement": "glycan array binding signal (z-score)", "setting": "[7]", "result": -0.336},
      {"measurement": "glycan array binding signal (z-score)", "setting": "[8]", "result": 0.038},
      {"measurement": "glycan array binding signal (z-score)", "setting": "[9]", "result": 0.26},
      {"measurement": "glycan array binding signal (z-score)", "setting": "[10]", "result": -0.758},
      {"measurement": "glycan array binding signal (z-score)", "setting": "[11]", "result": -0.34},
      {"measurement": "glycan array binding signal (z-score)", "setting": "[12]", "result": 0.541},
      {"measurement": "glycan array binding signal (z-score)", "setting": "[13]", "result": 0.461},
      {"measurement": "glycan array binding signal (z-score)", "setting": "[14]", "result": -0.388},
      {"measurement": "glycan array binding signal (z-score)", "setting": "[15]", "result": -0.402},
      {"measurement": "glycan array binding signal (z-score)", "setting": "[16]", "result": 0.336},
      {"measurement": "glycan array binding signal (z-score)", "setting": "Fuc(a1-2)Gal6S(b1-4)Glc", "result": 0.412},
      {"measurement": "glycan array binding signal (z-score)", "setting": "[17]", "result": -0.072},
      {"measurement": "glycan array binding signal (z-score)", "setting": "Fuc(a1-2)[Gal(a1-3)]Gal", "result": 0.083},
      {"measurement": "glycan array binding signal (z-score)", "setting": "[18]", "result": 0.187},
      {"measurement": "glycan array binding signal (z-score)", "setting": "[19]", "result": -0.638},
      {"measurement": "glycan array binding signal (z-score)", "setting": "[20]", "result": 0.064},
      {"measurement": "glycan array binding signal (z-score)", "setting": "[21]", "result": -0.612},
      {"measurement": "glycan array binding signal (z-score)", "setting": "[22]", "result": -0.242},
      {"measurement": "glycan array binding signal (z-score)", "setting": "[23]", "result": -0.095},
      {"measurement": "glycan array binding signal (z-score)", "setting": "[24]", "result": -0.246},
      {"measurement": "glycan array binding signal (z-score)", "setting": "[25]", "result": 0.432},
      {"measurement": "glycan array binding signal (z-score)", "setting": "[26]", "result": -0.577},
      {"measurement": "glycan array binding signal (z-score)", "setting": "[27]", "result": -1.2},
      {"measurement": "glycan array binding signal (z-score)", "setting": "[28]", "result": 2.43}
    ]}
  ]
}
